PubChem BioAssay AID504764 – Drosophila RNAi Screening Center, 2011

- Aim: 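Knock-downs that raise or lower a Notch target reporter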 (primary screen)
- Cell system: Drosophila Kc167 cells
- Reagent: long dsRNA against Drosophila genes
- Timing: about 5 days (4 days dsRNA, then 24 h after transfection)
- Conditions: transfection of constitutively active membrane-tethered Notch lacking the extracellular domain, read 24 h later
- Measured: 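Light from a Notch-responsive E(spl)m3 luciferase reporter under active Notch, with control-promoter and no-Notch reporter wells to normalise; raw counts from paired wells a and b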
- Reading the numbers: induced reporter light, run 1, well a and induced reporter light, run 1, well b: higher = more light from the Notch target reporter with active Notch; control promoter light, run 1, well a and control promoter light, run 1, well b: higher = more light from the viral control promoter (cell number, transfection, viability); uninduced reporter light, run 1, well a: higher = more light from the Notch target reporter without active Notch
- Rule for the call: 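Wells with low control signal or poorly matching duplicates excluded; duplicates averaged; per source plate, z beyond ±2 for induced/control log2 ratio or beyond ±1.8 for induced/uninduced marks a hit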
- Calls: active = modifier hit (raised or lowered Notch signal); inactive = not a hit
The screen tested about 22,000 reagents; this is a random part of those with a known target gene and a result. In the full data, 403 (1.9%) were called active. 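Unnormalised raw counts per well; ratio z-scores behind the hit calls and whether each hit raises or lowers signal are not deposited.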 The numbers tell different reagents against one gene apart. The record does not give: the amount of reagent.

gene	dsRNA no.	induced reporter light, run 1, well a	induced reporter light, run 1, well b	control promoter light, run 1, well a	control promoter light, run 1, well b	uninduced reporter light, run 1, well a	outcome
CG18335 (GeneID 36202)	1	89520	1.41e5	1.58e5	1.41e5	9625	inactive
Sgs5 (GeneID 42114)	1	2.41e5	2.17e5	1.97e5	2.34e5	20065	inactive
CG14625 (GeneID 31066)	1	98450	94120	1.41e5	1.71e5	7142	inactive
l(1)G0469 (GeneID 32371)	1	1.92e5	1.99e5	2.66e5	2.61e5	14410	inactive
l(1)G0469 (GeneID 32371)	2	81785	70630	90645	75140	11185	inactive
Doa (GeneID 43415)	1	2.24e5	2.11e5	2.41e5	2.45e5	17620	inactive
Doa (GeneID 43415)	2	1.76e5	1.57e5	1.78e5	1.83e5	13435	inactive
Doa (GeneID 43415)	3	2.11e5	1.70e5	1.84e5	2.01e5	17570	inactive
Doa (GeneID 43415)	4	1.68e5	1.76e5	2.03e5	2.39e5	15695	inactive
Doa (GeneID 43415)	5	1.90e5	1.67e5	2.01e5	1.93e5	16935	inactive
Doa (GeneID 43415)	6	1.94e5	2.37e5	3.04e5	2.99e5	15130	inactive
sgg (GeneID 31248)	1	56480	61525	84835	92145	4690	inactive
sgg (GeneID 31248)	2	56380	65740	89455	90525	4685	inactive
sgg (GeneID 31248)	3	1.42e5	1.15e5	2.01e5	1.95e5	6540	inactive
Sk1 (GeneID 32089)	1	95385	86560	1.35e5	1.33e5	7050	inactive
CG13005 (GeneID 32670)	1	72370	67225	63805	63395	8155	inactive
fh (GeneID 31845)	1	1.02e5	88815	96025	1.36e5	7755	inactive
stops (GeneID 43683)	1	1.18e5	1.23e5	1.80e5	1.71e5	11190	inactive
stops (GeneID 43683)	2	1.44e5	1.13e5	1.90e5	2.24e5	12890	inactive
stops (GeneID 43683)	3	1.40e5	1.56e5	1.98e5	1.61e5	12045	inactive
mthl7 (GeneID 38910)	1	1.78e5	1.91e5	3.01e5	2.05e5	10025	inactive
CG42240 (GeneID 7354471)	1	1.91e5	1.49e5	1.92e5	1.83e5	15005	inactive
rdx (GeneID 41704)	1	37215	41260	26980	27595	7020	inactive
rdx (GeneID 41704)	2	2.66e5	2.64e5	1.83e5	1.78e5	22890	inactive
CG33639 (GeneID 32803)	1	97705	83625	99250	72735	11238	inactive
CG33639 (GeneID 32803)	2						inactive
rad (retired record) (GeneID 32251)	1	1.30e5	1.16e5	2.55e5	1.71e5	8278	inactive
rad (retired record) (GeneID 32251)	2						inactive
beta-PheRS (GeneID 42888)	1	47505	52895	83470	79175	6680	active
Prosalpha2 (GeneID 41531)	1	88550	78125	80535	53665	5225	inactive
CG10232 (GeneID 42800)	1	1.69e5	1.88e5	1.62e5	1.56e5	15295	inactive
Vha68-2 (GeneID 45012)	1	1.43e5	1.52e5	1.37e5	1.48e5	10940	inactive
idc (GeneID 42393)	1	1.45e5	1.69e5	1.76e5	1.88e5	17480	inactive
CG18735 (GeneID 59137)	1	67855	53820	50410	50950	2070	inactive

Individual results from above:
rad (retired record) (GeneID 32251) #2, outcome = inactive
Result for Doa (GeneID 43415) #1 in “induced reporter light, run 1, well a”: 2.24e5
For “outcome”, CG33639 (GeneID 32803) #2 shows inactive
